Results of single-concentration screens

Source: ChEMBL document CHEMBL3988442, “University of Dundee, Small-Polar-MMV Screening Library” (2021).

Mtb glucose medium: 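Growth of Mycobacterium tuberculosis over 3 days (7H9 medium with glucose and tyloxapol); the read-out is not stated. Tested at 50 µM. The record gives no direction; compounds that gave an IC50 in retests scored well above the rest, so higher reads as more growth inhibition. About 69,000 compounds were tested under these conditions; 1.1% (about 760) showed 50% or more at least once.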
Mtb cholesterol medium: 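Growth of Mycobacterium tuberculosis over 4 days (cholesterol / DPPC medium with tyloxapol); the read-out is not stated. Compounds at 50 µM. The record gives no direction; compounds that gave an IC50 in retests scored well above the rest, so higher reads as more growth inhibition. Size under these conditions: about 69,000 compounds, about 370 of them at 50% or above in at least one test.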

The filed quantity is “Percent Effect” (%). The record does not define 0% and 100%; most values in the screen are far below 50% and negative numbers occur (in some assays of this library far below -100). Compounds were drawn at random from those tested, without regard to their results. Two or more numbers in one place are separate tests of the same structure; such repeats can differ widely.

SMILES: COc1ncccc1CNC(=O)c1cnc(C)cn1
Mtb glucose medium: 19.21
Mtb cholesterol medium: 6.743

SMILES: CC(C)CN1CCCn2nc(CNC(=O)CCN)cc2C1
Mtb glucose medium: -9.237
Mtb cholesterol medium: -11.43

SMILES: O=C(O)C(F)(F)F.[H][C@@]12C[C@H](c3nc(C)no3)CN(Cc3ccc(CC)o3)[C@]1([H])CCO2
Mtb glucose medium: 13.56
Mtb cholesterol medium: -5.531

SMILES: O=C(O)C(F)(F)F.[H][C@@]12CCN(Cc3cccc(C)c3)C[C@]1(C(=O)NC)CCO2
Mtb glucose medium: -48.36
Mtb cholesterol medium: -10.53 & -8.991

SMILES: CC(C)Cn1ccnc1CNC(=O)NC(C)c1nccs1 (stereo not given)
Mtb glucose medium: 15.99
Mtb cholesterol medium: 5.439

SMILES: CC(=O)N1Cc2nccn2CC(CNC(=O)c2ccnnc2)C1 (stereo not given)
Mtb glucose medium: -2.054 & 18.94
Mtb cholesterol medium: 7.197

SMILES: Cc1ccc(C)c(CC(=O)Nc2cccc(C(=O)N(C)C)n2)c1
Mtb glucose medium: 2.328 & -5.218
Mtb cholesterol medium: 1.483

SMILES: Cc1noc(CCCC(=O)NC(C)c2ccc(Cl)s2)n1 (stereo not given)
Mtb glucose medium: 50.24
Mtb cholesterol medium: 20.25

SMILES: CCc1nncn1CCNC(=O)Nc1ccc2c(c1)CCCO2
Mtb glucose medium: -11.74
Mtb cholesterol medium: 7.652

SMILES: COCCN1CCCC(c2ncc(C(=O)N(C)C)c(C)n2)C1 (stereo not given)
Mtb glucose medium: 8.855
Mtb cholesterol medium: 6.379

SMILES: CC(O)CN1CCC(CN(C)Cc2cc(F)cc3cccnc23)CC1 (stereo not given)
Mtb glucose medium: -10.65
Mtb cholesterol medium: -23.36

SMILES: CN(C)c1ccc2c(c1)CN(C(=O)c1ccco1)C2c1cnco1 (stereo not given)
Mtb glucose medium: -58.5 & -4.602
Mtb cholesterol medium: -30.98

SMILES: O=C(c1cc2cccc(F)c2[nH]1)N1C[C@@H](O)[C@H](N2CCCC2)C1
Mtb glucose medium: -11.94
Mtb cholesterol medium: -14.88 & -1.919

SMILES: Cc1cc(C(N)=O)nc(C2(C)CCCN2Cc2cnn(C)c2C)n1 (stereo not given)
Mtb glucose medium: 2.962
Mtb cholesterol medium: -24.78

SMILES: COCCc1noc(CN(C)C(=O)c2cccc(N3CCCC3=O)c2)n1
Mtb glucose medium: 0.977
Mtb cholesterol medium: 2.361

SMILES: COc1cccc(N2Cc3nc(=O)[nH]n3C2=O)c1
Mtb glucose medium: -18.69
Mtb cholesterol medium: -13.36 & 11.23

SMILES: Cc1cccc(CN2CCC3(CCCN(C(=O)NC(C)C)C3)C2=O)n1.O=C(O)C(F)(F)F (stereo not given)
Mtb glucose medium: -0.3254 & -1.509
Mtb cholesterol medium: -8.349 & -9.84

SMILES: N#Cc1cccc(NC(=O)C2CCCN2c2nccs2)c1 (stereo not given)
Mtb glucose medium: -2.763
Mtb cholesterol medium: 1.838

SMILES: Cc1nnc(SCCNC(=O)c2cc(S(N)(=O)=O)ccc2F)s1
Mtb glucose medium: -9.754
Mtb cholesterol medium: -9.238

SMILES: O=C(O)C(F)(F)F.O=C(O)C(F)(F)F.[H][C@@]12CCN(Cc3ccncc3)C[C@@]1([H])O[C@@H](C(=O)NCCOC)C2
Mtb glucose medium: -42.54
Mtb cholesterol medium: -38.72

SMILES: O=C(O)C(F)(F)F.O=C(O)C(F)(F)F.c1cncc(CN2Cc3nccn3CC(Cn3cccn3)C2)c1 (stereo not given)
Mtb glucose medium: -1.32
Mtb cholesterol medium: -6.415

SMILES: COc1cc(CCC(=O)N2CCC(c3cc4ncc(C)nc4[nH]3)C2)on1 (stereo not given)
Mtb glucose medium: 2.05
Mtb cholesterol medium: -13.92 & -12.01

SMILES: CO[C@@H]1CCN(c2nnc(C)s2)C[C@@H]1Cc1ccccc1.O=C(O)C(F)(F)F
Mtb glucose medium: 53.46 & 53.06
Mtb cholesterol medium: 49.55

SMILES: O=C(Cn1cc(Cl)cn1)N1CCCC(c2cc3ccccc3cn2)C1 (stereo not given)
Mtb glucose medium: -22.22
Mtb cholesterol medium: -13.09

SMILES: CCC(=O)Nc1ccc2c(c1)C1(CCOCC1)CN2CCOC.O=C(O)C(F)(F)F
Mtb glucose medium: 13.81
Mtb cholesterol medium: -4.464

SMILES: CSCC(C)(O)CNC(=O)c1ccc(F)cc1Br (stereo not given)
Mtb glucose medium: 10.48
Mtb cholesterol medium: -5.656

SMILES: O=C(CCc1cc2n(n1)CCCNC2)N1CCC(N2CCOC2=O)CC1
Mtb glucose medium: 22.76
Mtb cholesterol medium: -3.555

SMILES: CCc1n[nH]c(C2CN(CCS(C)(=O)=O)CCO2)n1 (stereo not given)
Mtb glucose medium: -4.069
Mtb cholesterol medium: -17.14

SMILES: CC(=O)Nc1ccc2nn(C(C)C)cc2c1
Mtb glucose medium: -11.76
Mtb cholesterol medium: -18.78

SMILES: CCC(Nc1cccc(OC)c1)C(=O)N(CCOC)Cc1cnn(C)c1 (stereo not given)
Mtb glucose medium: 10.64
Mtb cholesterol medium: -5.543

SMILES: O=c1ccc2c(n1Cc1ccncc1)CCN(C1CCOC1)CC2 (stereo not given)
Mtb glucose medium: -34.97 & -1.349
Mtb cholesterol medium: -3.372

SMILES: CCOCC1c2c(cnn2CC2CC2)CCN1C(=O)c1ccncn1.O=C(O)C(F)(F)F (stereo not given)
Mtb glucose medium: -24.91 & -6.349
Mtb cholesterol medium: -14.61